## Library screen at single concentrations

Chains of the proteins cited; added tags and fusions are not shown. Residues count along the entry.
UniProt A4I591, 1-473: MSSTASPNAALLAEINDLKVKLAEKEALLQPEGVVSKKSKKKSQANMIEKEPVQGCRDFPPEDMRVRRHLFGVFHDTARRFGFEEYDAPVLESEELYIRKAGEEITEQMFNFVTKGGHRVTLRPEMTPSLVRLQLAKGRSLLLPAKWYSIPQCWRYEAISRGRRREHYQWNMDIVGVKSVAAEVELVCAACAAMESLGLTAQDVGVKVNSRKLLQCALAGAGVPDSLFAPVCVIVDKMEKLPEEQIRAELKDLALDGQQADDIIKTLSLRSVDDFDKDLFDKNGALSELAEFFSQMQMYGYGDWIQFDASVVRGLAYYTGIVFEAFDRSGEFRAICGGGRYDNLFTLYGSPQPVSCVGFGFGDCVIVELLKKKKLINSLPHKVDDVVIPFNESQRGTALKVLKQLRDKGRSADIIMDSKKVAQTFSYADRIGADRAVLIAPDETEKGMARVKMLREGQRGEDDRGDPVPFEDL
UniProt Q4DA54, 1-478: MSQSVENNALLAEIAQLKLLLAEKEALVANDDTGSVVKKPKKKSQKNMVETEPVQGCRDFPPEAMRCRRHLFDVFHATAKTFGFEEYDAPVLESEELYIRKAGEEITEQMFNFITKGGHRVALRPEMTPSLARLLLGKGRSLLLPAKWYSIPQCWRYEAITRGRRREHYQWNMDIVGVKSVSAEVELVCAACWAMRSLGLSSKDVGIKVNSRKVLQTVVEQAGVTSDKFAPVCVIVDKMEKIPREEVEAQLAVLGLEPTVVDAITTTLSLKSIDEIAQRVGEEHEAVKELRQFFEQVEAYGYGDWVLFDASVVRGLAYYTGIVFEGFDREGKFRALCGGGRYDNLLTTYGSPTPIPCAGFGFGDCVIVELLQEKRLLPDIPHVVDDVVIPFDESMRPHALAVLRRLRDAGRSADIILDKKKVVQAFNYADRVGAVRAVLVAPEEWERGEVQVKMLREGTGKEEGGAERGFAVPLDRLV
UniProt P9WPC5, whole entry: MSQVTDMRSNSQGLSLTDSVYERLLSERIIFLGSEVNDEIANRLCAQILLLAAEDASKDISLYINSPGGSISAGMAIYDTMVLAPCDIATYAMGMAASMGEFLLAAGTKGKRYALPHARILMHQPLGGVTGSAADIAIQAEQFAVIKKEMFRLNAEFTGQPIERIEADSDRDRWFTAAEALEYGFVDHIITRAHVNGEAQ
UniProt P9WPC3, whole entry partner: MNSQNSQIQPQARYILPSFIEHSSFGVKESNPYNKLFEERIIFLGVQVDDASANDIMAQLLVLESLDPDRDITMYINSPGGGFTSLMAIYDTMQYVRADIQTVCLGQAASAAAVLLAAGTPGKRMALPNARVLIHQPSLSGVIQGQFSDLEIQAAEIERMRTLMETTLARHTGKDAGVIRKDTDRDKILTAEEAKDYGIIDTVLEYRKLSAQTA

Each number is a percent effect as filed. The controls that fix the scale are not given in the record; negative values are as filed. This is an unselected part of the compounds tested.

LiHisRS: 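Histidine-tRNA ligase, Leishmania infantum (UniProt A4I591). Enzyme assay of histidyl-tRNA synthetase; the read-out is not stated. Tested at 30 µM. Direction is inferred from retests: higher values go with stronger inhibition. The assay is labelled LdHisRS but filed under L. infantum. About 69,000 compounds were tested under these conditions; 0.6% (about 410) showed 50% or more at least once.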
TcHisRS: 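Enzyme assay of histidyl-tRNA synthetase; the read-out is not stated. Target: Histidine-tRNA ligase, Trypanosoma cruzi CL Brener (UniProt Q4DA54). Concentration: 30 µM. Direction is inferred from retests: higher values go with stronger inhibition. Size under these conditions: about 69,000 compounds, about 31 of them at 50% or above in at least one test.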
ClpP1P2: 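ClpP1P2, Mycobacterium tuberculosis (UniProt P9WPC5 and UniProt P9WPC3). Protease assay of ClpP1P2, read by the AMC dye that it sets free. Concentration: 50 µM. Direction is inferred from only a few compounds that gave an IC50; most scored high, so higher reads as stronger inhibition. Most other retested compounds had strongly negative values. About 69,000 compounds were tested under these conditions; 0.015% (about 10) showed 50% or more at least once.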

{"compound": "COCCCN(C)c1nc(-c2ccncc2)nc(C)c1C", "LiHisRS": 20, "TcHisRS": 17.65, "ClpP1P2": -0.5067}
{"compound": "CC(C)Nc1cccc(C(=O)NCC(O)c2ccc(F)cc2F)c1", "stereo": "configuration not stated", "LiHisRS": 11.11, "TcHisRS": -2.041, "ClpP1P2": 2.479}
{"compound": "Cc1nc(-c2nnc[nH]2)sc1C(=O)N1CCCC1Cn1cccn1", "stereo": "configuration not stated", "LiHisRS": 15.71, "TcHisRS": 5.319, "ClpP1P2": 3.537}
{"compound": "Cc1ccc(OCCCC(=O)Nc2nonc2C)cc1C", "LiHisRS": 5.618, "TcHisRS": 3.627, "ClpP1P2": -4.679}
{"compound": "Cc1nc(CNC(=O)Cn2nc(-c3ccc(F)cc3)oc2=O)cs1", "LiHisRS": 0.8, "TcHisRS": 4.183, "ClpP1P2": 11.69}
{"compound": "NS(=O)(=O)CCNC(=O)c1cc2cccc(F)c2o1", "LiHisRS": 16.96, "TcHisRS": 0, "ClpP1P2": -4.805}
{"compound": "O=C(CCc1nc(C2CC2)no1)c1ccc(F)c(F)c1", "LiHisRS": 17.07, "TcHisRS": -0.4808, "ClpP1P2": -8.106}
{"compound": "Cc1cccc(C(=O)N2CCCCC2c2[nH]ncc2S(C)(=O)=O)c1", "stereo": "configuration not stated", "LiHisRS": 7.246, "TcHisRS": 0, "ClpP1P2": -7.384}
{"compound": "CC(=O)N1CCN(C(=O)CCn2c(C)nc3ccccc3c2=O)CC1", "LiHisRS": 17.86, "TcHisRS": 8.284, "ClpP1P2": -14.07}
{"compound": "Cc1noc(C)c1CN1C[C@@H](NC(=O)N(C)C)[C@H](C(C)C)C1", "LiHisRS": 26.76, "TcHisRS": 3.185, "ClpP1P2": -2.287}
{"compound": "Cc1ccc([C@@H]2CN(S(=O)(=O)N(C)C)C[C@H]2N(C)C)cc1", "LiHisRS": 15.09, "TcHisRS": -3.39, "ClpP1P2": -7.272}
{"compound": "COC(=O)c1cccc(C2CNCCN2C(C)=O)c1", "stereo": "configuration not stated", "LiHisRS": -4.317, "TcHisRS": -1.149, "ClpP1P2": 14.74}
{"compound": "CC(=O)c1cccc(OCCCC(=O)NC(C#N)CC(C)C)c1", "stereo": "configuration not stated", "LiHisRS": 0, "TcHisRS": 0.6024, "ClpP1P2": -3.019}
{"compound": "Cc1nc(O)cc(C2CCN(C(=O)CN(C)c3ccccc3)CC2)n1", "LiHisRS": 10.67, "TcHisRS": 1.63, "ClpP1P2": -8.609}
{"compound": "Cc1cc(NC(=O)CN2CCN(c3nc(C)cs3)C(C)C2)on1", "stereo": "configuration not stated", "LiHisRS": 7.339, "TcHisRS": 4.373, "ClpP1P2": -45.62}
{"compound": "COc1cccc(CNC(=O)N2CCN(Cc3cc(C)on3)CC2)c1", "LiHisRS": -19.1, "TcHisRS": 3.008, "ClpP1P2": 7.372}
{"compound": "c1cncc(CO[C@H]2CN(Cc3ccco3)[C@@H]3COC[C@H]23)c1", "LiHisRS": 13.64, "TcHisRS": 11.64, "ClpP1P2": -5.244}
{"compound": "Cc1noc(C)c1CN1CCC2(CC1)CN(c1ccccn1)CCO2", "LiHisRS": 28.77, "TcHisRS": 2.97, "ClpP1P2": 0.3376}
{"compound": "Cc1ccc(C(=O)N2C[C@H]3CNC[C@H]3C2)cn1", "LiHisRS": 0, "TcHisRS": -0.9709, "ClpP1P2": -11.26}
{"compound": "CC(C)Sc1ccc(N2CCN(Cc3ccccn3)CC2)nn1", "LiHisRS": 4.464, "TcHisRS": 1.724, "ClpP1P2": -1.841}
{"compound": "CCCNC(=O)CCNC(=O)c1ccccc1N1CCOCC1", "LiHisRS": 17.74, "TcHisRS": -21.43, "ClpP1P2": -5.27}
{"compound": "COCCn1nc(C(=O)N2CCOCC2C)ccc1=O", "stereo": "configuration not stated", "LiHisRS": 10.42, "TcHisRS": 8.861, "ClpP1P2": 0.9926}

The first 2 entries again:

Compound,LiHisRS,TcHisRS,ClpP1P2
COCCCN(C)c1nc(-c2ccncc2)nc(C)c1C,20%,17.65%,-0.5067%
CC(C)Nc1cccc(C(=O)NCC(O)c2ccc(F)cc2F)c1 (configuration not stated),11.11%,-2.041%,2.479%

Measurements from “University of Dundee, Small-Polar-MMV Screening Library” (2021), ChEMBL document CHEMBL3988442.